# ± gives the standard deviation of the averaged measurements. This is one part of the list. The list holds hits alone, and they repeat only in part.
# Sequences of proteins named here, by UniProt entry; tags and fusion partners are left off.
# ANAPC4, Q9UJX5, UniProt Q9UJX5, whole entry: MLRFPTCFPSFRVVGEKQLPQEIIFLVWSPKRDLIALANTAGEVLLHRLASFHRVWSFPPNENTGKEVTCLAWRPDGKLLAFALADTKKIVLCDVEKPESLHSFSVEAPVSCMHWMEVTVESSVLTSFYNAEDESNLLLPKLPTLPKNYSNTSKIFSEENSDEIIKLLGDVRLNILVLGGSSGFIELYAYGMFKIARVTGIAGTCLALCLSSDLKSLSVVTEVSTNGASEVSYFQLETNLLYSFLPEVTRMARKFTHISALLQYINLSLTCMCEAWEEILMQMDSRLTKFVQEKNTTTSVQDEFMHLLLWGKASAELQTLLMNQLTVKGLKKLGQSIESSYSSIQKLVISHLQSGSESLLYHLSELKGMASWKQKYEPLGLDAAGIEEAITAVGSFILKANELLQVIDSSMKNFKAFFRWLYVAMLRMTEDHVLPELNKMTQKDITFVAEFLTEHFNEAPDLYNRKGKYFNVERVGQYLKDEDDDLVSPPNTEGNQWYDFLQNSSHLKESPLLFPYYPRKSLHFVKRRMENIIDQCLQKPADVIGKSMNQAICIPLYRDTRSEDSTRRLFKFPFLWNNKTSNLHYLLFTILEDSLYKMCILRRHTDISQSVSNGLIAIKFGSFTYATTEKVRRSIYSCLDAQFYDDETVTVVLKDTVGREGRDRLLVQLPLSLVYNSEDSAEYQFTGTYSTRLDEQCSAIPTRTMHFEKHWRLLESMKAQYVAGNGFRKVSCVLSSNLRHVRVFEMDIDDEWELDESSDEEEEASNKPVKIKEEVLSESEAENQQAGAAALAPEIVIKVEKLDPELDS
# LIG1, P18858, UniProt P18858, whole entry: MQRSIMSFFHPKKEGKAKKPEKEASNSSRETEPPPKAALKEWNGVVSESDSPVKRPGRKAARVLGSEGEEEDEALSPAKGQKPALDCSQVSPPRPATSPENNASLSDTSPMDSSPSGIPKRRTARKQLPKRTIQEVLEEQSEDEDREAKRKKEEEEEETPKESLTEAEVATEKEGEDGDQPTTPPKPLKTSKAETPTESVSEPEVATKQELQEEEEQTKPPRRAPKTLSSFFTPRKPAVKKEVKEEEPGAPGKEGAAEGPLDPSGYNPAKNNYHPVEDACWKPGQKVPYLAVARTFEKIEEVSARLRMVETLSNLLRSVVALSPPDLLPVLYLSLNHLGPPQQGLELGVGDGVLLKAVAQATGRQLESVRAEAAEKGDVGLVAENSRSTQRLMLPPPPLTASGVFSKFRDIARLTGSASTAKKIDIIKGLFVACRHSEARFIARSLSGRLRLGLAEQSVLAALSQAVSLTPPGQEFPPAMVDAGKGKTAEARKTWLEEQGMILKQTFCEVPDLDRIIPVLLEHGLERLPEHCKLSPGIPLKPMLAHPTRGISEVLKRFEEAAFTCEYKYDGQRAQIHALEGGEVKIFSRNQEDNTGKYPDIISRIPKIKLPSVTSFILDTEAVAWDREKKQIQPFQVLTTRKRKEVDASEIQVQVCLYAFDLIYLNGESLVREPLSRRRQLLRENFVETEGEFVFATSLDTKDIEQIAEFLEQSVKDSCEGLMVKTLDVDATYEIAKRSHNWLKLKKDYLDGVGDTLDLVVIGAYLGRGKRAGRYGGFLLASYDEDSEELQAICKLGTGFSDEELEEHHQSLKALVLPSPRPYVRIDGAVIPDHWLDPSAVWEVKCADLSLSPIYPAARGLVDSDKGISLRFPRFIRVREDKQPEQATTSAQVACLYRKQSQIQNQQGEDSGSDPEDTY
# AP2A2, O94973, UniProt O94973, whole entry: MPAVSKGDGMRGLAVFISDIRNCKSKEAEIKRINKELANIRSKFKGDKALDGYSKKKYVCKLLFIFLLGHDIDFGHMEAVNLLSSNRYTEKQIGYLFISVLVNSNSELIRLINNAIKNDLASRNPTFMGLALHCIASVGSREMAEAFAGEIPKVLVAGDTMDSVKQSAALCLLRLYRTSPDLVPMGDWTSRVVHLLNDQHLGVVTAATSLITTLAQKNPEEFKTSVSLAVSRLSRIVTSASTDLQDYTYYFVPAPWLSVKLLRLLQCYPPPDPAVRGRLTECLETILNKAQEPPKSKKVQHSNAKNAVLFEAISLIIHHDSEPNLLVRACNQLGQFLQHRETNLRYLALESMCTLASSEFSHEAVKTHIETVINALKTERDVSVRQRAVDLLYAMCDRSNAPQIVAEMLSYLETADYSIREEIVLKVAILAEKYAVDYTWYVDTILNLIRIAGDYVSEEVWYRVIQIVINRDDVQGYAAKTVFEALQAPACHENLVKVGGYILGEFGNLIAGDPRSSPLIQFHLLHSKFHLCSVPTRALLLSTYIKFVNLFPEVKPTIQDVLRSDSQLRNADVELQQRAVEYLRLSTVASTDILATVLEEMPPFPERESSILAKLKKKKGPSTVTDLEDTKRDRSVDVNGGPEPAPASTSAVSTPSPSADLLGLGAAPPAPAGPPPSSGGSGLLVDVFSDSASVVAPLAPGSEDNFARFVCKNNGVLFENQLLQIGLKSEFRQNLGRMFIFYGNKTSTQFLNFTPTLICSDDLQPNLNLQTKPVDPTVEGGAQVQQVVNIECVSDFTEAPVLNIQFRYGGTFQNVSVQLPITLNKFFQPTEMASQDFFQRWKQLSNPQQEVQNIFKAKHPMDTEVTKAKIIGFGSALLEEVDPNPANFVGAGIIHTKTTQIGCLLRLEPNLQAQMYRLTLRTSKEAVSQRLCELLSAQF
# CRIPT, Q9P021, UniProt Q9P021, whole entry: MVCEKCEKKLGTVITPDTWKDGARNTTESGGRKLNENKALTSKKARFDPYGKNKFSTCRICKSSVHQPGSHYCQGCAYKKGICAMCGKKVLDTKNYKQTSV
# MORF4L1, Q9UBU8, UniProt Q9UBU8, whole entry: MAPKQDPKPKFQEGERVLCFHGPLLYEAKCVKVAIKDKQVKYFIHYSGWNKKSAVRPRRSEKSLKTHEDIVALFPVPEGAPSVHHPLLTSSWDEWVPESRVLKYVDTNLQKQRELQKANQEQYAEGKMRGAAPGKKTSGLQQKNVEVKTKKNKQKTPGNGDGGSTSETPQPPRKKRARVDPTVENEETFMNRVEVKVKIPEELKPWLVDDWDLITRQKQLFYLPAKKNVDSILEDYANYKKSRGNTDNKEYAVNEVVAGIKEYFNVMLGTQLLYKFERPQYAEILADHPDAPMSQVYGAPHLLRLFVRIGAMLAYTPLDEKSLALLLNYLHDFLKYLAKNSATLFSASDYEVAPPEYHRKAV
# MORF4L2, Q15014, UniProt Q15014, whole entry: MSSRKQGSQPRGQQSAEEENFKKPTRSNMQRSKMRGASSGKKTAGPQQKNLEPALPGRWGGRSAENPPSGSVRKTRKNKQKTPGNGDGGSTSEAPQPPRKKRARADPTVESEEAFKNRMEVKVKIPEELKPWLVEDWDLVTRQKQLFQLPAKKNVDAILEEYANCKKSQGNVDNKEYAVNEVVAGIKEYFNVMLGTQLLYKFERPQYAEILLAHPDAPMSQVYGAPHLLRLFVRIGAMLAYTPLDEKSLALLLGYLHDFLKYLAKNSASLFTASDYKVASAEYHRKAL
# MPG, P29372, UniProt P29372, whole entry: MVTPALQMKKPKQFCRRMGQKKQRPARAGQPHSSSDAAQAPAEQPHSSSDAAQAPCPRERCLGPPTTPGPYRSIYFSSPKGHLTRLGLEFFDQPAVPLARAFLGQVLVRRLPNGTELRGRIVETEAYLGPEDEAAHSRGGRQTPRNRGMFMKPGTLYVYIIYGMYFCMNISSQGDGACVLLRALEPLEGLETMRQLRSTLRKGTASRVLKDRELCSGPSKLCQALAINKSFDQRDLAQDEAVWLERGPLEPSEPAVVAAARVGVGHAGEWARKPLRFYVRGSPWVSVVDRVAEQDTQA
# PIN1, Q13526, UniProt Q13526, whole entry: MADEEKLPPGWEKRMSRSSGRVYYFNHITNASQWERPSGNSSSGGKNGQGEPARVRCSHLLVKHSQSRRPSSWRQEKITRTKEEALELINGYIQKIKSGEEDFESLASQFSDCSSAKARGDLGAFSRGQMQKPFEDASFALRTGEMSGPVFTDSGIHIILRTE
# PIN4, Q9Y237, UniProt Q9Y237, whole entry: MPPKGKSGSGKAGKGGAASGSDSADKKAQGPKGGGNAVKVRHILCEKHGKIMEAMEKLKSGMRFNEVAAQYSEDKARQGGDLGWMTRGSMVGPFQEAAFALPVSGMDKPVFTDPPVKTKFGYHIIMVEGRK
# PLK1, P53350, UniProt P53350, whole entry: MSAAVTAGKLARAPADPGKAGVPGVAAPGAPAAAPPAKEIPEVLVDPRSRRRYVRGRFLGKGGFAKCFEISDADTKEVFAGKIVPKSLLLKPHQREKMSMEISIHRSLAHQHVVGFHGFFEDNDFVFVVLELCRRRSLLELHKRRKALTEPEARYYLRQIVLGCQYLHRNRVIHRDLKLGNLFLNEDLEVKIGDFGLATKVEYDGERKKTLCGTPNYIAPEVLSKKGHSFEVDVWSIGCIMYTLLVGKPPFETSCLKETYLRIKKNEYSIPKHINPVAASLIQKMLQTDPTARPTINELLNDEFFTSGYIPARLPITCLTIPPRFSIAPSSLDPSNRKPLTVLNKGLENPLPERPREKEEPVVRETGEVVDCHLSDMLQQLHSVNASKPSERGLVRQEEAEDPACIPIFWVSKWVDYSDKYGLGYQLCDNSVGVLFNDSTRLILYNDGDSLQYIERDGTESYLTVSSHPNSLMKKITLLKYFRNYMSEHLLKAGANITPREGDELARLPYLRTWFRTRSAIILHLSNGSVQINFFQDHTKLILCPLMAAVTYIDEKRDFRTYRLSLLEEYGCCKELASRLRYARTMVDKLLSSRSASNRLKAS
# TMA7, Q9Y2S6, UniProt Q9Y2S6, whole entry: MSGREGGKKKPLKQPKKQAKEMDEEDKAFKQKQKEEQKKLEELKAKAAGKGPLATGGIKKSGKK
# Experiments:
# Assay in all cases: PRISMA enrichment of interactor (LFQ) in peptide spot vs all other peptide spots (log2 fold change); higher = stronger / more specific binding of the interactor to the peptide
# ANAPC4, Q9UJX5 = target: ANAPC4, Q9UJX5
# Description: (§1)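 PRISMA: 221 full-length sORF-encoded peptides (3-15 aa), plus SOS1/GLUT1 control peptides, were spot-synthesized on cellulose membranes in triplicate. Membranes were incubated with HEK293T lysate, and bound proteins were identified by LC-MS/MS with LFQ. Enrichment is the log2 fold change versus all other peptide spots; only significant interactors are listed (cutoff c=6, x0=2.8).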
# CASC1, Q6TDU7 = target: CASC1, Q6TDU7
# Description: as §1
# LIG1, P18858 = target: LIG1, P18858
# Description: as §1
# SNRNP40, Q96DI7 = target: SNRNP40, Q96DI7
# Description: as §1
# ALKBH2, Q6NS38 = target: ALKBH2, Q6NS38
# Description: as §1
# ALYREF, Q86V81 = target: ALYREF, Q86V81
# Description: as §1
# AMMECR1L, Q6DCA0 = target: AMMECR1L, Q6DCA0
# Description: as §1
# AP2A2, O94973 = target: AP2A2, O94973
# Description: as §1
# C11orf98, E9PRG8 = target: C11orf98, E9PRG8
# Description: as §1
# C12orf65, Q9H3J6 = target: C12orf65, Q9H3J6
# Description: as §1
# C19orf53, Q9UNZ5 = target: C19orf53, Q9UNZ5
# Description: as §1
# C8orf33, Q9H7E9 = target: C8orf33, Q9H7E9
# Description: as §1
# CCDC137, Q6PK04 = target: CCDC137, Q6PK04
# Description: as §1
# CCDC59, Q9P031 = target: CCDC59, Q9P031
# Description: as §1
# CFAP20, Q9Y6A4 = target: CFAP20, Q9Y6A4
# Description: as §1
# CHID1, Q9BWS9 = target: CHID1, Q9BWS9
# Description: as §1
# CHTOP, Q9Y3Y2 = target: CHTOP, Q9Y3Y2
# Description: as §1
# CKMT1A, P12532 = target: CKMT1A, P12532
# Description: as §1
# CRIPT, Q9P021 = target: CRIPT, Q9P021
# Description: as §1
# CSNK1A1, P48729 = target: CSNK1A1, P48729
# Description: as §1
# CSNK1D, P48730 = target: CSNK1D, P48730
# Description: as §1
# CSNK1E, P49674 = target: CSNK1E, P49674
# Description: as §1
# CSRP2, Q16527 = target: CSRP2, Q16527
# Description: as §1
# CXorf56, Q9H5V9 = target: CXorf56, Q9H5V9
# Description: as §1
# DDX47, Q9H0S4 = target: DDX47, Q9H0S4
# Description: as §1
# DDX49, Q9Y6V7 = target: DDX49, Q9Y6V7
# Description: as §1
# DECR2, Q9NUI1 = target: DECR2, Q9NUI1
# Description: as §1
# EDF1, O60869 = target: EDF1, O60869
# Description: as §1
# EEFSEC, P57772 = target: EEFSEC, P57772
# Description: as §1
# EHHADH, Q08426 = target: EHHADH, Q08426
# Description: as §1
# EMG1, Q92979 = target: EMG1, Q92979
# Description: as §1
# FBL, P22087 = target: FBL, P22087
# Description: as §1
# GABARAPL2, P60520 = target: GABARAPL2, P60520
# Description: as §1
# GAR1, Q9NY12 = target: GAR1, Q9NY12
# Description: as §1
# GSK3B, P49841 = target: GSK3B, P49841
# Description: as §1
# GTPBP1, O00178 = target: GTPBP1, O00178
# Description: as §1
# H1FX, Q92522 = target: H1FX, Q92522
# Description: as §1
# HMGB2, P26583 = target: HMGB2, P26583
# Description: as §1
# HP1BP3, Q5SSJ5 = target: HP1BP3, Q5SSJ5
# Description: as §1
# IBA57, Q5T440 = target: IBA57, Q5T440
# Description: as §1
# ISG20L2, Q9H9L3 = target: ISG20L2, Q9H9L3
# Description: as §1
# KIFC1, Q9BW19 = target: KIFC1, Q9BW19
# Description: as §1
# MAP4, P27816 = target: MAP4, P27816
# Description: as §1
# MAZ, P56270 = target: MAZ, P56270
# Description: as §1
# MCAT, Q8IVS2 = target: MCAT, Q8IVS2
# Description: as §1
# MORF4L1, Q9UBU8 = target: MORF4L1, Q9UBU8
# Description: as §1
# MORF4L2, Q15014 = target: MORF4L2, Q15014
# Description: as §1
# MPG, P29372 = target: MPG, P29372
# Description: as §1
# MRRF, Q96E11 = target: MRRF, Q96E11
# Description: as §1
# NIFK, Q9BYG3 = target: NIFK, Q9BYG3
# Description: as §1
# NME4, O00746 = target: NME4, O00746
# Description: as §1
# NTHL1, P78549 = target: NTHL1, P78549
# Description: as §1
# NUSAP1, Q9BXS6 = target: NUSAP1, Q9BXS6
# Description: as §1
# PIN1, Q13526 = target: PIN1, Q13526
# Description: as §1
# PIN4, Q9Y237 = target: PIN4, Q9Y237
# Description: as §1
# PLK1, P53350 = target: PLK1, P53350
# Description: as §1
# PPIL2, Q13356 = target: PPIL2, Q13356
# Description: as §1
# PSRC1, Q6PGN9 = target: PSRC1, Q6PGN9
# Description: as §1
# RBIS, Q8N0T1 = target: RBIS, Q8N0T1
# Description: as §1
# RPS19BP1, Q86WX3 = target: RPS19BP1, Q86WX3
# Description: as §1
# RPUSD3, Q6P087 = target: RPUSD3, Q6P087
# Description: as §1
# TAX1BP3, O14907 = target: TAX1BP3, O14907
# Description: as §1
# THYN1, Q9P016 = target: THYN1, Q9P016
# Description: as §1
# TMA16, Q96EY4 = target: TMA16, Q96EY4
# Description: as §1
# TMA7, Q9Y2S6 = target: TMA7, Q9Y2S6
# Description: as §1
# TOMM34, Q15785 = target: TOMM34, Q15785
# Description: as §1
# TRAF2, Q12933 = target: TRAF2, Q12933
# Description: as §1
# UTP11, Q9Y3A2 = target: UTP11, Q9Y3A2
# Description: as §1
# UTP15, Q8TED0 = target: UTP15, Q8TED0
# Description: as §1
# VRK1, Q99986 = target: VRK1, Q99986
# Description: as §1
# ZNF146, Q15072 = target: ZNF146, Q15072
# Description: as §1
# ZNF22, P17026 = target: ZNF22, P17026
# Description: as §1
# ZNF512, Q96ME7 = target: ZNF512, Q96ME7
# Description: as §1
# ZNF768, Q9H5H4 = target: ZNF768, Q9H5H4
# Description: as §1
binder,measurement,setting,value
MRNFDPCGPPFRK [AP5M1],PRISMA enrichment of interactor (log2),"ANAPC4, Q9UJX5",4.27
same,PRISMA enrichment of interactor (log2),"CASC1, Q6TDU7",4.78
same,PRISMA enrichment of interactor (log2),"LIG1, P18858",4.04
same,PRISMA enrichment of interactor (log2),"SNRNP40, Q96DI7",4.58
MQEVWGELGD [PDGFD],PRISMA enrichment of interactor (log2),"ALKBH2, Q6NS38",5.71
same,PRISMA enrichment of interactor (log2),"ALYREF, Q86V81",6.21 ± 0.18
same,PRISMA enrichment of interactor (log2),"AMMECR1L, Q6DCA0",4.47
same,PRISMA enrichment of interactor (log2),"AP2A2, O94973",4.92
same,PRISMA enrichment of interactor (log2),"C11orf98, E9PRG8",5.08
same,PRISMA enrichment of interactor (log2),"C12orf65, Q9H3J6",5.64
same,PRISMA enrichment of interactor (log2),"C19orf53, Q9UNZ5",8.52
same,PRISMA enrichment of interactor (log2),"C8orf33, Q9H7E9",4.34
same,PRISMA enrichment of interactor (log2),"CCDC137, Q6PK04",8.02
same,PRISMA enrichment of interactor (log2),"CCDC59, Q9P031",5.09
same,PRISMA enrichment of interactor (log2),"CFAP20, Q9Y6A4",4.87
same,PRISMA enrichment of interactor (log2),"CHID1, Q9BWS9",3.93
same,PRISMA enrichment of interactor (log2),"CHTOP, Q9Y3Y2",5.99
same,PRISMA enrichment of interactor (log2),"CKMT1A, P12532",9.63
same,PRISMA enrichment of interactor (log2),"CRIPT, Q9P021",4.43
same,PRISMA enrichment of interactor (log2),"CSNK1A1, P48729",8.43
same,PRISMA enrichment of interactor (log2),"CSNK1D, P48730",4.47
same,PRISMA enrichment of interactor (log2),"CSNK1E, P49674",7.17
same,PRISMA enrichment of interactor (log2),"CSRP2, Q16527",4.91
same,PRISMA enrichment of interactor (log2),"CXorf56, Q9H5V9",6.14
same,PRISMA enrichment of interactor (log2),"DDX47, Q9H0S4",5.24
same,PRISMA enrichment of interactor (log2),"DDX49, Q9Y6V7",6.51
same,PRISMA enrichment of interactor (log2),"DECR2, Q9NUI1",5.22
same,PRISMA enrichment of interactor (log2),"EDF1, O60869",4.99
same,PRISMA enrichment of interactor (log2),"EEFSEC, P57772",6.92
same,PRISMA enrichment of interactor (log2),"EHHADH, Q08426",7.08
same,PRISMA enrichment of interactor (log2),"EMG1, Q92979",7.72
same,PRISMA enrichment of interactor (log2),"FBL, P22087",5.62
same,PRISMA enrichment of interactor (log2),"GABARAPL2, P60520",6.13
same,PRISMA enrichment of interactor (log2),"GAR1, Q9NY12",5.41
same,PRISMA enrichment of interactor (log2),"GSK3B, P49841",5.28
same,PRISMA enrichment of interactor (log2),"GTPBP1, O00178",5.13
same,PRISMA enrichment of interactor (log2),"H1FX, Q92522",5.53
same,PRISMA enrichment of interactor (log2),"HMGB2, P26583",5.12
same,PRISMA enrichment of interactor (log2),"HP1BP3, Q5SSJ5",5.7
same,PRISMA enrichment of interactor (log2),"IBA57, Q5T440",6.6
same,PRISMA enrichment of interactor (log2),"ISG20L2, Q9H9L3",5.01
same,PRISMA enrichment of interactor (log2),"KIFC1, Q9BW19",5.04
same,PRISMA enrichment of interactor (log2),"MAP4, P27816",6.34
same,PRISMA enrichment of interactor (log2),"MAZ, P56270",5.48 ± 1.2
same,PRISMA enrichment of interactor (log2),"MCAT, Q8IVS2",4.38
same,PRISMA enrichment of interactor (log2),"MORF4L1, Q9UBU8",5.61
same,PRISMA enrichment of interactor (log2),"MORF4L2, Q15014",7.97
same,PRISMA enrichment of interactor (log2),"MPG, P29372",6.87
same,PRISMA enrichment of interactor (log2),"MRRF, Q96E11",4.59
same,PRISMA enrichment of interactor (log2),"NIFK, Q9BYG3",6.38
same,PRISMA enrichment of interactor (log2),"NME4, O00746",5.33
same,PRISMA enrichment of interactor (log2),"NTHL1, P78549",5
same,PRISMA enrichment of interactor (log2),"NUSAP1, Q9BXS6",4.73
same,PRISMA enrichment of interactor (log2),"PIN1, Q13526",4.81
same,PRISMA enrichment of interactor (log2),"PIN4, Q9Y237",7.87
same,PRISMA enrichment of interactor (log2),"PLK1, P53350",7.34
same,PRISMA enrichment of interactor (log2),"PPIL2, Q13356",5.5
same,PRISMA enrichment of interactor (log2),"PSRC1, Q6PGN9",5.76
same,PRISMA enrichment of interactor (log2),"RBIS, Q8N0T1",4.55
same,PRISMA enrichment of interactor (log2),"RPS19BP1, Q86WX3",5.49
same,PRISMA enrichment of interactor (log2),"RPUSD3, Q6P087",6.61
same,PRISMA enrichment of interactor (log2),"TAX1BP3, O14907",4.09
same,PRISMA enrichment of interactor (log2),"THYN1, Q9P016",5.8
same,PRISMA enrichment of interactor (log2),"TMA16, Q96EY4",5.07
same,PRISMA enrichment of interactor (log2),"TMA7, Q9Y2S6",5.09
same,PRISMA enrichment of interactor (log2),"TOMM34, Q15785",7.09
same,PRISMA enrichment of interactor (log2),"TRAF2, Q12933",12.2
same,PRISMA enrichment of interactor (log2),"UTP11, Q9Y3A2",5.02
same,PRISMA enrichment of interactor (log2),"UTP15, Q8TED0",4.6
same,PRISMA enrichment of interactor (log2),"VRK1, Q99986",4.1
same,PRISMA enrichment of interactor (log2),"ZNF146, Q15072",4.12
same,PRISMA enrichment of interactor (log2),"ZNF22, P17026",5.14
same,PRISMA enrichment of interactor (log2),"ZNF512, Q96ME7",4.96
same,PRISMA enrichment of interactor (log2),"ZNF768, Q9H5H4",6.08

# 5 entries from above, as tab-separated lines:
binder	measurement	setting	value
MQEVWGELGD [PDGFD]	PRISMA enrichment of interactor (log2)	RPUSD3, Q6P087	6.61
same	PRISMA enrichment of interactor (log2)	TAX1BP3, O14907	4.09
same	PRISMA enrichment of interactor (log2)	THYN1, Q9P016	5.8
same	PRISMA enrichment of interactor (log2)	TMA16, Q96EY4	5.07
same	PRISMA enrichment of interactor (log2)	TMA7, Q9Y2S6	5.09

# Random excerpt: two records from the list.
binder,measurement,setting,value
MQEVWGELGD [PDGFD],PRISMA enrichment of interactor (log2),"TMA16, Q96EY4",5.07
same,PRISMA enrichment of interactor (log2),"ZNF22, P17026",5.14

# Reference: the supplement of paper PMC10032668
